Some results were stated once for a whole list of compounds, not compound by compound.
Columns and labels:
[1] = system: Puccinia recondita; assay: Curative activity against brown rust of wheat caused by Puccinia recondita; assay type: in vivo; details: 250 ppm active compound, curative spray one day after inoculation, wheat seedlings, rating after 7 days; untreated plants 70% infected
[2] = system: Botrytis cinerea; assay: Activity against gray mold on bell pepper leaves caused by Botrytis cinerea, protective application; assay type: in vivo; details: 300 ppm active compound, protective spray, bell pepper seedlings, visual rating after 5 days; untreated plants 90% infected

In the case of CON=C(C)c1ccc(Oc2ccccc2NC(=O)c2cccnc2Cl)cc1 [example 1, 2-Chloro-N-{2-[4-(1-methoximinoethyl)phenoxy)phenyl)nicotinamide], the “infection (extent of the development of the rust fungus on the leaves)” value [1] is reported as “at most 10%” and the “infection (extent of the fungal infection of the leaves)” value [2] is reported as “at most 20%”.
